Laboratory results reported in patent publication US10308637B2 (LifeSci Pharmaceuticals, Inc., priority 2015, dated 2019).
At least one compound was matched to its structure with a doubt left.

Experiment: Contact Assay (percentage inhibition from fluorescence intensity)
Format: biochemical
Procedure: The percentage inhibition was calculated using the following equation:
[formula] where, Mean(BG) is the average value of the fluorescence intensity of the background wells and Mean(PC) is the average value of the fluorescence intensity of the positive control wells.
Table 4 provides the EC50 values of various compounds disclosed herein.

Cc1nc(N)ccc1CNC(=O)c1ccnc(Cc2cc(C#N)c3ncc(Cl)cc3c2)c1 [Example 56, N-(6-amino-2-methyl-pyridin-3-ylmethyl)-2-(3-chloro-8-cyano-quinolin-6-ylmethyl)-isonicotinamide]
EC50: 100 to 1000 nM
